{"source": "PubChem BioAssay AID504786 (Drosophila RNAi Screening Center, 2011)", "purpose": "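Knock-downs reducing HIF reporter induction by the iron chelator DFO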 (primary screen)", "cells": "Drosophila S2 cells with a stable HIF luciferase reporter", "reagent": "long dsRNA against Drosophila genes, about 0.2 µg dsRNA per well of a 384-well plate", "duration": "three days of knock-down, then 20 h of DFO before reading", "treatment": "desferrioxamine (DFO) at 100 µM, an iron chelator that mimics hypoxia, for 20 h", "measurement": "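HIF reporter luminescence in cells given 100 µM DFO for 20 h, using the mouse ldh-a hypoxia-response element, scored as per-plate z-scores; higher means greater loss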", "direction": "z-score: higher = stronger loss of HIF reporter signal", "note": "The deposit covers about 21,000 reagents; this is an unselected part of those with a known target gene and a result. 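Primary screen; positive scores mean lost reporter signal, so the sign may be inverted from the usual convention.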 Names joined by + are all predicted targets of the reagent. Further read-outs or replicates are left out here."}
{"Target gene": "sgll (GeneID 40925)", "DRSC id": "DRSC15442", "z-score, replicate 1": -0.2}
{"Target gene": "CG11322 (GeneID 33949)", "DRSC id": "DRSC02142", "z-score, replicate 1": -0.4}
{"Target gene": "Rab8 (GeneID 40168)", "DRSC id": "DRSC11261", "z-score, replicate 1": -0.5}
{"Target gene": "Vamp7 (GeneID 36015)", "DRSC id": "DRSC06599", "z-score, replicate 1": -0.2}
{"Target gene": "uri (GeneID 37924)", "DRSC id": "DRSC04111", "z-score, replicate 1": -0.3}
{"Target gene": "CG18745 (GeneID 59141)", "DRSC id": "DRSC15382", "z-score, replicate 1": -0.4}
{"Target gene": "Acbp1 (GeneID 34111)", "DRSC id": "DRSC03093", "z-score, replicate 1": -0.3}
{"Target gene": "l(3)72Dn (GeneID 39774)", "DRSC id": "DRSC10468", "z-score, replicate 1": -0.2}
{"Target gene": "CG46441 (GeneID 42423)", "DRSC id": "DRSC15561", "z-score, replicate 1": -0.3}
{"Target gene": "POLDIP2 (GeneID 40655)", "DRSC id": "DRSC12194", "z-score, replicate 1": -0.3}
{"Target gene": "CG11779 + CG5835", "DRSC id": "DRSC15886", "z-score, replicate 1": -0.8}
{"Target gene": "Patr-1 (GeneID 42058)", "DRSC id": "DRSC14159", "z-score, replicate 1": -0.2}
{"Target gene": "CG13692 (GeneID 33216)", "DRSC id": "DRSC00361", "z-score, replicate 1": -0.2}
{"Target gene": "TfIIB (GeneID 34430)", "DRSC id": "DRSC03454", "z-score, replicate 1": 0.2}
{"Target gene": "Theg (GeneID 42585)", "DRSC id": "DRSC16023", "z-score, replicate 1": -0.2}
{"Target gene": "CG8960 (GeneID 38280)", "DRSC id": "DRSC08612", "z-score, replicate 1": -0.2}
{"Target gene": "CG10950 (GeneID 36942)", "DRSC id": "DRSC06020", "z-score, replicate 1": -0.3}
{"Target gene": "PolE2 (GeneID 38661)", "DRSC id": "DRSC09737", "z-score, replicate 1": 0.1}
{"Target gene": "Cpsf160 (GeneID 44250)", "DRSC id": "DRSC05968", "z-score, replicate 1": 1.1}
{"Target gene": "Nepl7 (GeneID 34671)", "DRSC id": "DRSC02495", "z-score, replicate 1": 0.7}
{"Target gene": "fau (GeneID 41291)", "DRSC id": "DRSC12816", "z-score, replicate 1": -0.3}
{"Target gene": "fau (GeneID 41291)", "DRSC id": "DRSC12817", "z-score, replicate 1": -0.2}
{"Target gene": "fau (GeneID 41291)", "DRSC id": "DRSC16943", "z-score, replicate 1": -0.2}
{"Target gene": "fau (GeneID 41291)", "DRSC id": "DRSC16944", "z-score, replicate 1": -0.2}
{"Target gene": "fau (GeneID 41291)", "DRSC id": "DRSC16945", "z-score, replicate 1": -0.4}
{"Target gene": "ThrRS (GeneID 45784)", "DRSC id": "DRSC02843", "z-score, replicate 1": 0.1}
{"Target gene": "CG15814 (GeneID 32765)", "DRSC id": "DRSC19730", "z-score, replicate 1": -0.2}
{"Target gene": "CG14546 (GeneID 43142)", "DRSC id": "DRSC14890", "z-score, replicate 1": -0.4}
{"Target gene": "betaNACtes1 (GeneID 32360)", "DRSC id": "DRSC19534", "z-score, replicate 1": -0.4}
{"Target gene": "Frq1 (GeneID 32797)", "DRSC id": "DRSC19961", "z-score, replicate 1": -0.4}
{"Target gene": "CG34107 (GeneID 4379852)", "DRSC id": "DRSC14554", "z-score, replicate 1": -0.4}
{"Target gene": "cher (GeneID 42066)", "DRSC id": "DRSC16924", "z-score, replicate 1": -0.1}
{"Target gene": "CG4294 (GeneID 37579)", "DRSC id": "DRSC04460", "z-score, replicate 1": 0}
{"Target gene": "ph-p (GeneID 31181)", "DRSC id": "DRSC18820", "z-score, replicate 1": -0.4}
{"Target gene": "Hsp70Bb + Hsp70Ba + Hsp70Bc + 1 more", "DRSC id": "DRSC21247", "z-score, replicate 1": 2.3}
{"Target gene": "Hsp70Bb + Hsp70Ba + Hsp70Bc + 1 more", "DRSC id": "DRSC21248", "z-score, replicate 1": 2.7}
{"Target gene": "ltl (GeneID 38845)", "DRSC id": "DRSC10206", "z-score, replicate 1": -0.2}
{"Target gene": "ltl (GeneID 38845)", "DRSC id": "DRSC10870", "z-score, replicate 1": -0.2}
{"Target gene": "CG8746 (GeneID 35867)", "DRSC id": "DRSC07257", "z-score, replicate 1": -0.2}
{"Target gene": "beat-VII (GeneID 43213)", "DRSC id": "DRSC13780", "z-score, replicate 1": -0.1}
{"Target gene": "beat-VII (GeneID 43213)", "DRSC id": "DRSC14743", "z-score, replicate 1": -0.4}
{"Target gene": "beat-VII (GeneID 43213)", "DRSC id": "DRSC14744", "z-score, replicate 1": -0.7}
{"Target gene": "vnc + CG42455", "DRSC id": "DRSC09867", "z-score, replicate 1": 1.7}
{"Target gene": "CG5693 (GeneID 50463)", "DRSC id": "DRSC02878", "z-score, replicate 1": -0.3}
{"Target gene": "Rh4 + sina", "DRSC id": "DRSC11396", "z-score, replicate 1": -0.3}
{"Target gene": "CG11413 + CG4622", "DRSC id": "DRSC04109", "z-score, replicate 1": 0.2}
{"Target gene": "CG5062 (GeneID 31435)", "DRSC id": "DRSC18385", "z-score, replicate 1": -0.3}
{"Target gene": "Acbp2 (GeneID 38784)", "DRSC id": "DRSC11141", "z-score, replicate 1": -0.2}
{"Target gene": "aay (GeneID 39085)", "DRSC id": "DRSC11320", "z-score, replicate 1": -0.3}
{"Target gene": "Dis3l2 (GeneID 38034)", "DRSC id": "DRSC08496", "z-score, replicate 1": -0.2}
{"Target gene": "Helz (GeneID 39613)", "DRSC id": "DRSC11072", "z-score, replicate 1": -0.4}
